Reference: article PMC11117311

T1: FLAG-tagged IDH2 (UniProt P48735)
T1 sequence: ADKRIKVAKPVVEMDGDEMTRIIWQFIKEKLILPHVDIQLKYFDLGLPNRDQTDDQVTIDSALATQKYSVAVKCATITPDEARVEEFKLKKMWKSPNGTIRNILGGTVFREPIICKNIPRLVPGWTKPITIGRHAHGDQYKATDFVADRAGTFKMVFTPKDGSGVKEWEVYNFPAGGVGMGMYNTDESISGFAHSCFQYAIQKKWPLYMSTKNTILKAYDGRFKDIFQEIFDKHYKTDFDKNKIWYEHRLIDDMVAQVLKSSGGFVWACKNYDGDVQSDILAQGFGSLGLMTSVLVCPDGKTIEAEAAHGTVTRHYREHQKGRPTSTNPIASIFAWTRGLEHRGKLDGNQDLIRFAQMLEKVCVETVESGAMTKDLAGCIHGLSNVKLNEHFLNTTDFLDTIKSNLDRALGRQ

T2: FLAG-tagged IDH3A (UniProt P50213)
T2 sequence: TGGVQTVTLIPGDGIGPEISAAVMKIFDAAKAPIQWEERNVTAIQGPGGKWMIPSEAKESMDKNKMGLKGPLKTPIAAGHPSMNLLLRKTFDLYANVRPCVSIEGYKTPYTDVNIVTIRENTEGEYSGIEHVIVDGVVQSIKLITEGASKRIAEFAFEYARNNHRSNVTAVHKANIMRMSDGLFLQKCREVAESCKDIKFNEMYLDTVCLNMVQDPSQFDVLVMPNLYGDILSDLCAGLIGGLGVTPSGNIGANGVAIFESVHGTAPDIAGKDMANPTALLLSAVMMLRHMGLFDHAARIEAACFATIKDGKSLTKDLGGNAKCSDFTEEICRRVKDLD

T3: FLAG-tagged IDH3G (UniProt P51553)
T3 sequence: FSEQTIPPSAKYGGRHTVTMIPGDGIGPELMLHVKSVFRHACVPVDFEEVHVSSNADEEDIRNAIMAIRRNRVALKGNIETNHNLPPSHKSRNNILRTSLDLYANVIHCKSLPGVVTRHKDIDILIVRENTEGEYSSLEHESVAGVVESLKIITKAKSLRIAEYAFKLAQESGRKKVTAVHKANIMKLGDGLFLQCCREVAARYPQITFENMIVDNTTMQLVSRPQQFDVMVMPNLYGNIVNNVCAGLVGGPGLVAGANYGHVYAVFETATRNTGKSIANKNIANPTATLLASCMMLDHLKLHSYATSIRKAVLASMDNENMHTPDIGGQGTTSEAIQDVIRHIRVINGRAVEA

T4: FLAG-tagged IDH2 Ser202 mutation (FLAG-IDH2^S202A) (UniProt P48735)
T4 sequence: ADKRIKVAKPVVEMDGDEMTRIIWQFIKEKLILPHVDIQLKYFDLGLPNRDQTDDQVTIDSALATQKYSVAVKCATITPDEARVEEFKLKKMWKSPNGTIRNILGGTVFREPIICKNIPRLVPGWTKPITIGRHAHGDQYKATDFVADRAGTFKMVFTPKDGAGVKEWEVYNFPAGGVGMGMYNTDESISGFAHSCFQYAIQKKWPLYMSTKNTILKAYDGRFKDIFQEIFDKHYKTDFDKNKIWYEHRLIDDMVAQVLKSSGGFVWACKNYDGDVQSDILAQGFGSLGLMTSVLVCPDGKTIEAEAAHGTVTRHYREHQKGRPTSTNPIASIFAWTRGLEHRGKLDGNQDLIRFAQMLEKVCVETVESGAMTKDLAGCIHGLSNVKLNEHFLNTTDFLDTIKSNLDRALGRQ


Columns and labels:
[1] = biological target: T1, FLAG-tagged IDH2; assay: co-IP; RBE cells cotransfected with FLAG-tagged IDH(s) and HA-K18^WT or HA-K18^S30A; enrichment with anti-FLAG beads, HA-K18 levels by Western blot
[2] = biological target: T2, FLAG-tagged IDH3A; assay: as above
[3] = biological target: T3, FLAG-tagged IDH3G; assay: as above
[4] = biological target: T1, FLAG-tagged IDH2; assay: co-IP; RBE cells cotransfected with FLAG-IDH2 wild type or S202A and K18^WT and/or K18^S30A; Western blot and immunoprecipitation analyses (Figure S37); beads not stated
[5] = biological target: T4, FLAG-tagged IDH2 Ser202 mutation (FLAG-IDH2^S202A); assay: as above
[6] = biological target: FLAG-tagged Keratin 18 S30A (FLAG-K18^S30A) (human); assay: co-IP; HuCCT1 stable cell lines shK18 + WT and shK18 + S30A; immunoprecipitation of FLAG-K18, Western blot for endogenous TCA cycle enzymes
[7] = biological target: FLAG-tagged Keratin 18 S30A (FLAG-K18^S30A) (human); assay: co-IP; RBE-rescued cells (Figure S32); as the experiment in HuCCT1 cells

Molecule | binding [1] | binding [2] | binding [3] | binding [4] | binding [5] | binding [6] | binding [7]
HA-tagged K18 S30A mutant (HA-K18^S30A) (human) | binds | binds | binds | binds | binds | – | –
isocitrate dehydrogenase IDH2 (endogenous) (enzyme, UniProt P48735 40-452) ADKRIKVAKPVVEMDGDEMTRIIWQFIKEKLILPHVDIQLKYFDLGLPNRDQTDDQVTIDSALATQKYSVAVKCATITPDEARVEEFKLKKMWKSPNGTIRNILGGTVFREPIICKNIPRLVPGWTKPITIGRHAHGDQYKATDFVADRAGTFKMVFTPKDGSGVKEWEVYNFPAGGVGMGMYNTDESISGFAHSCFQYAIQKKWPLYMSTKNTILKAYDGRFKDIFQEIFDKHYKTDFDKNKIWYEHRLIDDMVAQVLKSSGGFVWACKNYDGDVQSDILAQGFGSLGLMTSVLVCPDGKTIEAEAAHGTVTRHYREHQKGRPTSTNPIASIFAWTRGLEHRGKLDGNQDLIRFAQMLEKVCVETVESGAMTKDLAGCIHGLSNVKLNEHFLNTTDFLDTIKSNLDRALGRQ | – | – | – | – | – | binds | binds
isocitrate dehydrogenase IDH3A (endogenous) (enzyme, UniProt P50213 28-366) TGGVQTVTLIPGDGIGPEISAAVMKIFDAAKAPIQWEERNVTAIQGPGGKWMIPSEAKESMDKNKMGLKGPLKTPIAAGHPSMNLLLRKTFDLYANVRPCVSIEGYKTPYTDVNIVTIRENTEGEYSGIEHVIVDGVVQSIKLITEGASKRIAEFAFEYARNNHRSNVTAVHKANIMRMSDGLFLQKCREVAESCKDIKFNEMYLDTVCLNMVQDPSQFDVLVMPNLYGDILSDLCAGLIGGLGVTPSGNIGANGVAIFESVHGTAPDIAGKDMANPTALLLSAVMMLRHMGLFDHAARIEAACFATIKDGKSLTKDLGGNAKCSDFTEEICRRVKDLD | – | – | – | – | – | binds | binds
isocitrate dehydrogenase IDH3G (endogenous) (enzyme, UniProt P51553 40-393) FSEQTIPPSAKYGGRHTVTMIPGDGIGPELMLHVKSVFRHACVPVDFEEVHVSSNADEEDIRNAIMAIRRNRVALKGNIETNHNLPPSHKSRNNILRTSLDLYANVIHCKSLPGVVTRHKDIDILIVRENTEGEYSSLEHESVAGVVESLKIITKAKSLRIAEYAFKLAQESGRKKVTAVHKANIMKLGDGLFLQCCREVAARYPQITFENMIVDNTTMQLVSRPQQFDVMVMPNLYGNIVNNVCAGLVGGPGLVAGANYGHVYAVFETATRNTGKSIANKNIANPTATLLASCMMLDHLKLHSYATSIRKAVLASMDNENMHTPDIGGQGTTSEAIQDVIRHIRVINGRAVEA | – | – | – | – | – | binds | binds

These are yes or no findings as the source states them, for the method shown. Binding seen in cells or lysates may run through a third protein. A result given as binding can be weak or reduced; the word gives no strength. For some assays here: Tags and fused reporters may be left off the sequences shown.
